± gives the standard deviation. This is a selection; strong and weak results do not stand in their true shares. Many entries were measured with a wide error. This is one part of the list.
Legend:
[1] = system: MILI (PIWIL2) piRISC loaded with L1MC piRNA (26 nt); assay: pre-steady-state target cleavage rate (min^-1); higher = faster piRNA-guided slicing of the target; conditions: guide: L1MC piRNA 5'p-UAACUAAAUACUAUGCAAGCUGUAGG; auxiliary factor: none (no GTSF1)
In short: (§1)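 The pre-steady-state cleavage rate came from a burst-and-steady-state fit to pooled data from three Cleave-'n-Seq trials, in which uncleaved targets were sequenced and normalised to depth and to weakly complementary targets. Each reaction held 0.1 nM transcribed, DNA-blocked target RNA library and 1 nM active affinity-purified piRISC carrying one synthetic guide, with or without 500 nM GTSF1 partner protein, in HEPES–potassium acetate buffer at 33 °C for 0–8 or 0–960 min. k3 was capped at 0.0001 min^-1.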

[2] = system: MIWI (PIWIL1) piRISC loaded with L1MC piRNA (30 nt); assay: as above; conditions: guide: L1MC piRNA 5'p-UAACUAAAUACUAUGCAAGCUGUAGGUCCU
In short: as §1

[3] = system: EfPiwi piRISC loaded with L1MC piRNA (26 nt); assay: pre-steady-state target cleavage rate (min^-1); guide: L1MC piRNA 5'p-UAACUAAAUACUAUGCAAGCUGUAGG; MIWI and MILI are mouse PIWI proteins and EfPiwi is from a freshwater sponge; tags in brackets are library labels; higher = faster piRNA-guided slicing of the target; conditions: auxiliary factor: 500 nM Ephydatia muelleri Gtsf1
In short: as §1

[4] = auxiliary factor: none (no GTSF1)

Sequence | pre-steady-state target cleavage rate [1] | pre-steady-state target cleavage rate ([2]; auxiliary factor: 500 nM mouse GTSF1) | pre-steady-state target cleavage rate [2, 4] | pre-steady-state target cleavage rate [3]
UCCUGGAUGAGCUUCCAUAGUAUUUAGAAA | 0.000554 ± 0.0087 | 0.00168 ± 0.0071 | 0.000975 ± 0.0063 | 0.00248 ± 0.0019
UCCUGGAUGUCGAUGCAUAGUAUUUAGUCA | – | – | 0.00139 ± 0.0049 | 0.00147 ± 0.0052
UCCUGGAUCACCUUCCAUAGUAUUUAGUUA | – | – | 0.000261 ± 0.011 | 0.00139 ± 0.0045
UCCUGGAUGUCGAAGCUUAGUAUUUUGUUA | – | – | 0.000152 ± 0.012 | 0.00015 ± 0.026
UCCUGGAUGAGCUUGCAAGUAUUUAGUUA | – | – | 0.00155 ± 0.0025 | 0.00199 ± 0.0043
UCCUGGAUGUCCUAGCAUAGUAUUUUGUUA | – | – | 0.00132 ± 0.006 | 0.000398 ± 0.0076
UCCUGGAUGUCGAAGCAUAGAAUUUAGUUA | – | – | 0.000474 ± 0.0097 | 0.000116 ± 0.031
